Results are given as percent effect. The controls that fix the scale are not given in the record; negative values are as filed. The compounds are a random part of those screened. Two or more numbers in one place are separate tests of the same structure; such repeats can differ widely.

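Viability assay of Plasmodium falciparum sporozoites; the read-out is not stated. The concentration is filed as 10 mM, unlikely as a test dose, so the dose is not known. Higher reads as lower viability (inferred: compounds with an IC50 in retests scored well above the rest). Strong results were mostly tested again. Of about 34,000 compounds tested this way, about 280 (0.84%) reached 50% or more in at least one test.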

structure	percent effect
O=C(O)C(F)(F)F.O=C(O)C(F)(F)F.c1cncc(COC[C@@H]2CCC[C@]23CNCCO3)c1	2.188%
Cc1nc(CN2CCCC(CCc3ccc(F)c(F)c3)C2)c[nH]1 (stereo not given)	-3.418%
COCCCN(Cc1ccc(F)cc1Cl)C1CCS(=O)(=O)C1 (stereo not given)	-13.35%
Cc1nn(C)c(C)c1CC(=O)N1CCCN(c2cccnn2)CC1	10.1%
Cl.Cn1ccnc1CNC(=O)c1ccnc(C2CCNCC2)c1	10.51%
Cc1cccc(CNC2CCCc3c2cnn3Cc2ccccc2)c1.Cl (stereo not given)	-4.443%
O=C(c1ccc2c(c1)COC2)N1CCC(Nc2cccnn2)CC1	-9.321%
O=C(NCCc1cscn1)c1coc(CN2CCOCC2)c1	-10.19%
[H][C@]12CC[C@@]3(N=C(C)N(CCOC)C3=O)[C@@]1([H])CN(S(=O)(=O)CC(C)C)C2	8.923%
CCN(C)c1ncnc2c1CCN(Cc1ccc(F)cc1)CC2.O=C(O)C(F)(F)F.O=C(O)C(F)(F)F	-8.292%
CN1CCCN(C(=O)c2ccnn2-c2ccc3ccccn23)CC1.O=C(O)C(F)(F)F	18.07%
COC(=O)CN1CCC(C(=O)c2cc(F)ccc2F)CC1	16.55%
COc1c(CNCCNC(=O)c2ccco2)c(C)nn1C	-2.089%
Cc1nc2c(c(=O)n1C)CCN(C(=O)CCc1ccccc1O)CC2	-10.3%
CC(NC(=O)NCCN1CCCCCC1=O)c1ccc(Cl)s1 (stereo not given)	11.9%
COc1ccc(CN(C)CC2CCCN2c2cccnn2)cc1F (stereo not given)	8.324%
Cc1csc(C2CCCCN2C(=O)CN(C)C(C)C)n1 (stereo not given)	15.06%
Cc1cc2c(cc1Cl)C=CC1(CCN(C(=O)N3CCOCC3)CC1)O2	11.22%
O=C1CCC(=O)N1c1nn(Cc2ccccc2)cc1Cl	11.58%
CC(C)COC(=O)N1CC(=O)N(Cc2ccc(Cl)cc2)CC(O)C1 (stereo not given)	-31.88%
Cc1nc(CCNC(=O)C2CC(=O)N(C(C)(C)C)C2)sc1C (stereo not given)	-13.94%
CC(C)CCOCCNC(=O)Nc1ccc(F)c(C(N)=O)c1	-3.174%
CCc1ncnc2c1CCN(Cc1ccccn1)CC2.O=C(O)C(F)(F)F.O=C(O)C(F)(F)F	-9.649%
COC(=O)c1cccn1C1CCN(Cc2nc3ccccc3o2)CC1	-2.498%
COCCCNc1nc(CNC(C)=O)cc(-c2ccco2)n1	7.705%
O=C(O)CC(O)(CC(=O)O)C(=O)O.[H][C@@]12CC[C@@](O)(c3ccccn3)[C@]1([H])CN(Cc1cccc(Cl)c1Cl)C2	-7.227%
CN(C)C(=O)CN1CCC2(CCN(S(=O)(=O)C3CC3)CC2)C1=O	7.443%
[H][C@@]12CN(C(=O)N(C)C)C[C@]1([H])C(=O)N(C)C21CCN(C(C)=O)CC1	12.49%
CCc1nc(CN2CCCN(C(=O)CCOC(C)C)CC2)cs1	0.2574%
CC(C)COC(C)C(=O)NCc1ccc(N(C)C)cc1 (stereo not given)	-4.393%
CC(C)CC(=O)N1CCN(Cc2cc(-c3ccncc3)nn2C)CC1	4.645%
O=C(Cc1ccc(F)cc1)NCCNCc1cccc(O)c1	-4.945%
[H][C@]12CCN(C(=O)Nc3ccccc3C)CC[C@@]1([H])S(=O)(=O)N(CC(C)C)C2	3.764%
COC1COC2(CCN(Cc3ccccc3C)CC2)C1.O=C(O)C(F)(F)F (stereo not given)	-28.68% and -23.29%
Cc1noc(NC(=O)c2ccccc2)n1	-6.912%
C[C@@H]1CN(C2Cc3ccccc3C2)CC[C@@]1(O)C1CCOCC1	4.487%
CNc1cc(C)nc(N2C[C@H](NC(=O)C3CCOCC3)[C@@H](C3CC3)C2)n1	-9.822% and -7.832% and -7.881%
Cc1noc(C)c1-c1cncc(C2CCCN2Cc2ncc[nH]2)n1 (stereo not given)	0.03575%
c1cc(-c2noc(CN3CCn4c(nnc4C4CC4)C3)n2)cs1	20.03%
O=C(CCOc1cccc(Cl)c1)N1CCN(c2cnccn2)CC1	-10.4%
Cc1ccccc1OC1CCN(CC(=O)Nc2c(C)nn(C)c2C)CC1	9.639%
CCc1nc(C2CCCN2C(=O)c2ccc(N3CCCC3)nn2)no1 (stereo not given)	0.1314%
CCOC(=O)COc1ccc(C(C)=O)c(O)c1	3.923%
[H][C@@]12CS(=O)(=O)C[C@]1([H])N(CCCc1ccccc1)CCN2C(=O)N(C)C	-7.387%
O=C(NCc1ccccc1F)N1CCCCC1C1OCCO1 (stereo not given)	-4.387%
Cc1nc(CN2CCN(C(=O)c3cc(C4CC4)on3)CC2)cs1	-14.8%
O=C(O)C(F)(F)F.O=C(O)C(F)(F)F.[H][C@@]12CCN(c3ncccn3)[C@]1([H])CC[C@H](C(=O)NCc1cccnc1)O2	4.253%
O=C(O)C(F)(F)F.[H][C@@]12CCN(CC3CCOCC3)[C@@]1([H])CCN2C(=O)c1ccc(C)c(F)c1	-13.63%
CCS(=O)(=O)N1CCC2(CC1)CN(C(=O)N(C)C)Cc1ccccc12	-1.027%
CCOc1ccnc(N2CCN(C(=O)c3cnc[nH]3)CC2)n1	1.676%
CC(C)(C(=O)N1CCC(CS(N)(=O)=O)CC1)c1ccccc1F	-15.5%
COc1ccc(Cc2nnc(NC(=O)C3CC34CCC4)s2)cc1OC (stereo not given)	15.85% and 11.93% and 13.14%
CCS(=O)(=O)CCn1ccc(NC(=O)CCc2cccc(C)c2)n1	2.48%
O=C1NCCN(CC2CC2)C12CCN(Cc1ccco1)CC2	-6.823%
Cc1cccc(CN2CCC3(CC2)NC(=O)C[C@H]3c2cnn(C)c2)n1.O=C(O)C(F)(F)F	9.781%
O=C(Cn1nc2ccccc2n1)N1CCCC(O)(CN2CCCC2)C1 (stereo not given)	-20.98% and -18.06%
O=C(CCn1nc(-c2cccs2)oc1=O)Nc1cccc(F)c1	5.836%
CN(C)C(=O)CN1CCC2(CCCN(Cc3ccsc3)C2)C1=O (stereo not given)	3.038%
[H][C@]12CCCN(S(=O)(=O)c3ccc4c(c3)CCC4)[C@@]1([H])CN(C(=O)C1CC1)C2	0.8417%
Cc1cc(C)n(CCCC(=O)N2CCc3ncc(Cl)cc3C2)n1	10.52%
CCn1c(CN(C)C(=O)c2ccc(OC)nc2)nc2ccccc21	-8.788%
CCC(c1nc(C(C)C)nn1-c1ccncc1C)n1cccn1 (stereo not given)	-16.16% and -26.68% and -21.36%
CN1CCCc2cc(NC(=O)N3CCOC(C(N)=O)C3)ccc21 (stereo not given)	-7.203%
CCCNC(=O)c1ncn2c1CN(CC(C)C)S(=O)(=O)c1ccccc1-2	20.71%
COC(=O)CC1CCN(C(=O)c2ccccc2-n2nnnc2C)CC1	-13.28%
Cn1nccc1-c1ccc2nc(C3CCN(CCO)CC3)nn2c1.O=C(O)C(F)(F)F	-15.91%
CCC1c2ccsc2CCN1C(=O)NCc1ccnc(N(C)C)c1 (stereo not given)	11.56%
Cc1noc(C)c1CC(=O)N1CCCC(Cc2ccccn2)C1 (stereo not given)	13.21%
[H][C@]12CCN(C(=O)C3CCCO3)[C@@]1([H])CCC(=O)N2CCN1CCCC1 (stereo not given in full)	-14.47%
COCCN1CCC(NCc2cccnc2)C1 (stereo not given)	-10.47%
O=S(=O)(Cc1ccccc1F)NCCN1CCOCC1	-4.721%
O=C(Cn1ccnc1)N1CC[C@H](Oc2cccc(F)c2)[C@@H](O)CC1	0.1283%
COc1cccc(C(=O)NC(c2ccccn2)[C@H]2CC[C@H](CN)CC2)c1 (stereo not given in full)	-15.23%
CC(O)CN1CCN(C(=O)c2ccc(N(C)C)nc2)CC1 (stereo not given)	13.25%
NC(=O)N1CC[C@H](O)[C@@H]1Cc1ccccc1	-17.33%

Source: ChEMBL document CHEMBL3988442, “University of Dundee, Small-Polar-MMV Screening Library” (2021).